{"source": "PubChem BioAssay AID485314", "about": "(National Center for Advancing Translational Sciences (NCATS), 2010)", "note": "Out of some 340,000 compounds screened, about 4,500 (1.3%) were called active. Inconclusive means that the source gave no clear call. Such entries were picked first, then a sample of the others. Calls come from the whole dose curve; as a rule, active = well fitted inhibition curve with a large enough effect; inconclusive = small, poorly fitted or top-dose-only effect, or another doubt; inactive = no such curve, though single readings can be large or run the other way. Potencies beside an inconclusive call are fits to weak or partial responses and may not hold up. % is set by controls: 0 for no effect and ±100 for the full control effect; potency is the fitted concentration of half-maximal effect."}
{"biological_target": "DNA polymerase beta (Homo sapiens) (UniProt P06746)", "assay": "qHTS Assay for Inhibitors of DNA Polymerase Beta", "settings": "Pol beta primer extension/strand displacement, fluorescence kinetic; activity change, negative = inhibition: at 114 µM (top of the series)", "in_short": "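Enzyme-only controls used 10 nM Pol beta; buffer lacking enzyme served as negative control. Compound preincubated 15 min, then 50 nM substrate added; 0 and 10 min reads at room temperature.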"}
{"smiles": "CCOC(=O)c1oc2cc(O)cc(C)c2c(=O)c1-c1cscn1", "Potency": "inconclusive: 79.4 µM [inhibitor, single point]"}
{"smiles": "Cc1ccc(CS(=O)(=O)CCC(=O)NCCC(C)C)cc1", "Potency": "inconclusive: 89.1 µM [inhibitor, single point]"}
{"smiles": "Nc1nc2ncc(CNc3ccc(C(=O)N[C@@H](CCC(=O)O)C(=O)O)cc3)nc2c(=O)[nH]1", "Potency": "inconclusive: 100 µM [inhibitor, single point]"}
{"smiles": "COc1ccc(-c2nc(CS(=O)(=O)CC(=O)Nc3cccc(C(C)=O)c3)c(C)o2)cc1", "Potency": "inconclusive: 0.316 µM [inhibitor, partial curve, poor fit]"}
{"smiles": "O=C(Nc1cccnc1)Nc1ccc(Br)cc1Cl", "Potency": "inactive"}
{"smiles": "O=C(COC(=O)c1ccc2c(c1)C(=O)N(Cc1ccncc1)C2=O)Nc1ccccc1[N+](=O)[O-]", "Potency": "active: 35.5 µM"}
{"smiles": "COc1ccc(C2c3c(n(C)c4ccccc34)C(=O)N2CC(=O)Nc2ccc(F)cc2)cc1", "note": "(stereo not drawn)", "Potency": "inconclusive: 56.2 µM [inhibitor, partial curve, poor fit]"}
{"smiles": "O=C(CCc1ccc(S(=O)(=O)N2CCOCC2)cc1)N/N=C/c1ccc(O)c(O)c1O", "Potency": "active: 12.6 µM"}
{"smiles": "Cc1ccc(NC(=O)C2CCCNC2=O)nc1", "note": "(stereo not drawn)", "Potency": "inconclusive: 89.1 µM [inhibitor, single point]"}
{"smiles": "CCOc1ccc(-c2nc(SCC(=O)Nc3cc(F)ccc3F)n3[nH]c(=O)cc3n2)cc1", "Potency": "active: 4.47 µM"}
{"smiles": "Cc1cc(NC(=O)c2ccc(NC(=O)CCS(=O)(=O)c3cccs3)cc2)ccc1Br", "Potency": "inconclusive: 39.8 µM [inhibitor, partial curve]"}
{"smiles": "COc1cccc(NS(=O)(=O)c2ccc3[nH]cc(C(=O)N4CCCC4)c(=O)c3c2)c1", "Potency": "inconclusive: 70.8 µM [inhibitor, partial curve]"}
{"smiles": "COc1ccc(-n2c(SC3CCOC3=O)nc3ccccc32)cc1", "note": "(stereo not drawn)", "Potency": "inconclusive: 100 µM [inhibitor, single point]"}
{"smiles": "N#C/C(=C(/O)c1cccs1)c1nc2ccccc2[nH]1", "Potency": "inconclusive: 10 µM [inhibitor, partial curve]"}
{"smiles": "CC(C)C[C@H](NC(=O)c1nc[nH]c1C(=O)NC1CCN(C(=O)OC(C)(C)C)CC1)C(=O)OC(C)(C)C", "Potency": "inconclusive: 31.6 µM [inhibitor, full curve]"}
{"smiles": "O=C(Nc1ccc(C(F)(F)F)cc1)C(Cc1ccccc1)n1cccc1", "note": "(stereo not drawn)", "Potency": "inconclusive: 79.4 µM [inhibitor, single point]"}
{"smiles": "Cc1onc(-c2ccccc2)c1C(=O)Nc1cccc(C#N)c1", "Potency": "inconclusive: 89.1 µM [inhibitor, single point]"}
{"smiles": "O=C(NCCCN1CCN(c2ccccc2F)CC1)c1ccc2nc(N3CCCCC3)sc2c1", "Potency": "inconclusive: 89.1 µM [inhibitor, single point]"}
{"smiles": "CCN(CC)C(=O)c1cc2c(=O)c3cc(F)ccc3oc2nc1C", "Potency": "inconclusive: 14.1 µM [inhibitor, full curve]"}
{"smiles": "CC(=O)Oc1ccc2c(c1)c(C(C)=O)c(C)n2C", "Potency": "active: 0.891 µM"}
{"smiles": "CC(Oc1ccc2ccccc2c1)C(=O)NNC(=O)Nc1ccccc1F", "note": "(stereo not drawn)", "Potency": "inconclusive: 89.1 µM [inhibitor, single point]"}
{"smiles": "O=C(NCc1ccco1)C1CCN(C(=O)c2cc3sccc3n2Cc2ccc(F)cc2)CC1", "Potency": "inactive"}
{"smiles": "CN(C)S(=O)(=O)N(CC(=O)NCCSc1ccccc1)c1ccccc1", "Potency": "inactive"}
{"smiles": "Cc1c(C(=O)N2CCC(C)CC2)c(S(=O)(=O)Nc2ccc(OC(F)(F)F)cc2)c(C)n1C", "Potency": "inactive"}
{"smiles": "CC(=O)Nc1cccc(-c2nc3ccc(NC(C)=O)cc3s2)c1", "Potency": "inconclusive: 5.62 µM [inhibitor, full curve]"}
{"smiles": "COc1ccc(OCC(=O)Nc2ccc(-c3nc4cc(C)c(C)cc4o3)cc2)cc1", "activity change, negative = inhibition": "inconclusive: -30.6% [inhibitor]"}
{"smiles": "Cc1ccc(NCc2nnc(SCC(=O)NNC(=O)Cc3ccccc3)n2C)cc1", "activity change, negative = inhibition": "inconclusive: -30.8% [inhibitor]"}
{"smiles": "O=C(Nc1cccc(-c2cn3cccnc3n2)c1)c1cccs1", "Potency": "inconclusive: 79.4 µM [inhibitor, single point]"}
{"smiles": "O=C(COC(=O)CCC(=O)c1cccs1)NCc1ccco1", "Potency": "inconclusive: 14.1 µM [inhibitor, full curve]"}
{"smiles": "COc1cc(OC)c(N(C)C(=O)c2sc3nc4n(c(=O)c3c2C)CCCCC4)cc1Cl", "Potency": "inactive"}
{"smiles": "Cc1ccc(-n2c(-c3cc(-c4ccco4)[nH]n3)n[nH]c2=S)c(Br)c1", "Potency": "inactive"}
{"smiles": "O=C(Nc1ccccc1)c1ccccc1N=Cc1cccc(O)c1", "Potency": "inconclusive: 3.16 µM [inhibitor, full curve, poor fit]"}
{"smiles": "Cc1ccc(S(=O)(=O)NC(=O)c2cc(C)n(-c3cc(S(=O)(=O)N4CCOCC4)ccc3N3CCCC3)c2C)cc1", "Potency": "inconclusive: 1 µM [inhibitor, full curve, poor fit]"}
{"smiles": "CCn1c(=O)c(C)nn2c3ccccc3nc12", "Potency": "inconclusive: 100 µM [inhibitor, single point]"}
{"smiles": "CC(=O)Nc1nc(N(C)C)nc(N(C)C)n1", "Potency": "inconclusive: 63.1 µM [inhibitor, single point]"}
{"smiles": "CC(C)CC(=O)Nc1c(C(=O)N2CCN(Cc3ccccc3)CC2)oc2ccccc12", "Potency": "inactive"}
{"smiles": "Cc1ccc(-c2ccc(S(=O)(=O)Nc3cccnc3)cc2)cc1", "Potency": "active: 50.1 µM"}
{"smiles": "Cc1cc(N/C(=N/S(=O)(=O)c2cc(F)ccc2F)c2ccccc2)n(-c2ccccc2)n1", "Potency": "inconclusive: 89.1 µM [inhibitor, single point]"}
{"smiles": "COCCNS(=O)(=O)c1cccc2cccnc12", "Potency": "inconclusive: 2.82 µM [inhibitor, single point]"}
{"smiles": "Clc1ccc2[nH]c3c(NCCN4CCOCC4)ncnc3c2c1", "Potency": "inconclusive: 44.7 µM [inhibitor, partial curve]"}
{"smiles": "Cc1c2cnn(CC(=O)Nc3c(F)c(F)cc(F)c3F)c(=O)c2c(C)n1Cc1ccc(F)cc1", "Potency": "active: 8.91 µM"}
{"smiles": "Cc1ccc(NC(=O)c2c(NC(=O)C(F)(F)F)sc3c2CCCCC3)cc1", "activity change, negative = inhibition": "inconclusive: -88% [inhibitor]"}
{"smiles": "COc1cccc(OC)c1C(=O)NC(=S)Nc1ccc(S(=O)(=O)Nc2nccs2)cc1", "Potency": "inconclusive: 3.98 µM [inhibitor, full curve]"}
